Taken from: PubChem BioAssay AID652259 (Drosophila RNAi Screening Center, 2013)
Assay: 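Knock-downs that push a Wingless-driven reporter up or down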 (primary screen). System: Drosophila clone 8 imaginal disc epithelial cells. Knock-down reagent: long dsRNA against Drosophila genes. Challenge: pathway stimulated by co-transfected Wingless expression plasmid. Measurement: 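Firefly luciferase from a tcf-site Wingless reporter, measured alongside co-transfected Renilla luciferase that tracks transfection; pathway stimulated by a Wingless plasmid; the firefly-to-Renilla ratio is not deposited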. Reading the numbers: firefly reporter light: higher = more Wg reporter light, before normalisation; Renilla control light: higher = more transfected or surviving cells. Hit rule: 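Strong candidates differ from their plate mean by at least two out of four per-plate statistical tests; weak candidates meet just one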. Meaning of the calls: active = candidate regulator (raises or lowers reporter); inactive = not a candidate.
The deposit covers about 22,000 reagents; shown is an unselected part of those with a known target gene and a result. Of all reagents, 233 (1.1%) are marked active. 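Light values are raw, unnormalised plate reads; the ratio scores behind the reporter calls were not deposited.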 Not stated in the record: the amount of reagent, the time to read-out, the dose of the treatment.

Against D19A (GeneID 38718) [DRSC11133], the entry reads firefly reporter light, replicate 1 = 3353; Renilla control light, replicate 1 = 1171; inactive.
Pde9 (GeneID 32233) [DRSC19746] showed firefly reporter light, replicate 1 = 16871; Renilla control light, replicate 1 = 7588; inactive.
After knock-down of Pde9 (GeneID 32233) [DRSC19874] the results were firefly reporter light, replicate 1 = 14624; Renilla control light, replicate 1 = 8420; inactive.
Depletion of Pde9 (GeneID 32233) [DRSC19875] came out at: firefly reporter light, replicate 1 = 14635; Renilla control light, replicate 1 = 7832; inactive.
Knock-down of Pde9 (GeneID 32233) [DRSC19876] gave: firefly reporter light, replicate 1 = 26260; Renilla control light, replicate 1 = 12711; inactive.
After knock-down of CG13324 (GeneID 36434) [DRSC06361], the screen gave firefly reporter light, replicate 1 = 6368; Renilla control light, replicate 1 = 1716; inactive.
With knock-down of CG1552 (GeneID 32035) [DRSC19665] the results were firefly reporter light, replicate 1 = 20568; Renilla control light, replicate 1 = 10240; inactive.
CG9624 (GeneID 41730) [DRSC16523] scored firefly reporter light, replicate 1 = 11611; Renilla control light, replicate 1 = 1946; inactive.

Targets listed so far whose gene name begins with C or c (3):
CG13324 (GeneID 36434) [DRSC06361] | firefly reporter light, replicate 1 = 6368; Renilla control light, replicate 1 = 1716; Call = inactive
CG1552 (GeneID 32035) [DRSC19665] | firefly reporter light, replicate 1 = 20568; Renilla control light, replicate 1 = 10240; Call = inactive
CG9624 (GeneID 41730) [DRSC16523] | firefly reporter light, replicate 1 = 11611; Renilla control light, replicate 1 = 1946; Call = inactive

More records:
CG5846 (GeneID 34326) [DRSC02904] showed firefly reporter light, replicate 1 = 8817; Renilla control light, replicate 1 = 1202; inactive.
CG42854 (GeneID 10178809) [DRSC19173] scored firefly reporter light, replicate 1 = 4518; Renilla control light, replicate 1 = 1400; inactive.
CG6800 (GeneID 42562) [DRSC16119] showed firefly reporter light, replicate 1 = 28376; Renilla control light, replicate 1 = 4704; inactive.
Depletion of CG12917 (GeneID 36065) [DRSC06231] gave: firefly reporter light, replicate 1 = 2166; firefly reporter light, replicate 2 = 5382; Renilla control light, replicate 1 = 657; Renilla control light, replicate 2 = 2420; inactive.
Sgs1 (GeneID 33701) [DRSC00787] gave firefly reporter light, replicate 1 = 3638; firefly reporter light, replicate 2 = 4145; Renilla control light, replicate 1 = 1274; Renilla control light, replicate 2 = 952; inactive.
Sgs1 (GeneID 33701) [DRSC00848] gave firefly reporter light, replicate 1 = 24869; Renilla control light, replicate 1 = 14077; inactive.
Pdzd8 (GeneID 32157) [DRSC19355] gave firefly reporter light, replicate 1 = 21537; Renilla control light, replicate 1 = 10189; inactive.
CG17600 (GeneID 33141) [DRSC20638] gave firefly reporter light, replicate 1 = 22592; Renilla control light, replicate 1 = 14740; inactive.
With knock-down of CG17600 (GeneID 33141) [DRSC20640], the screen gave firefly reporter light, replicate 1 = 14301; Renilla control light, replicate 1 = 7202; inactive.
After knock-down of CG17600 (GeneID 33141) [DRSC22753], the screen gave firefly reporter light, replicate 1 = 6.35e5; firefly reporter light, replicate 2 = 5.92e5; Renilla control light, replicate 1 = 1.89e5; Renilla control light, replicate 2 = 1.46e5; inactive.
